PubChem BioAssay AID504744 | Drosophila RNAi Screening Center | 2011
Purpose: 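Find genes whose loss alters insulin-driven dAkt phosphorylation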 (primary screen). System: Drosophila Kc167 cells. Reagents: long dsRNA against Drosophila genes, 250 ng dsRNA per well of a 384-well plate. Duration: 3 days of knock-down, then overnight serum-free starvation before stimulation. Conditions: bovine insulin at 387 nM for 10 minutes after 12 h without serum. Read-out: 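Per-well phospho-dAkt level from an in-cell fluorescent antibody stain, divided by a DNA-dye signal; log2 residuals turned into z-scores that take cell number into account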. Call rule: 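Under insulin, a gene counts as a hit if the average z-score of two replicates lies above 2.5 or below -2.5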.
The deposit covers about 23,000 reagents; this is a random part of those with a known target gene and a result. In the full data, 98 (0.43%) were called active. 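Only hit calls are given; the phospho-dAkt signals, z-scores and hit direction were not deposited.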 Names joined by + are all predicted targets of the reagent.

target gene	dsRNA	outcome
Exo84 (Exocyst 84)	DRSC15965	inactive
CG8191	DRSC20091	inactive
Gos28 (Golgi SNARE, 28 kDa)	DRSC16292	inactive
Gos28 (Golgi SNARE, 28 kDa)	DRSC22859	inactive
CG15186	DRSC12566	inactive
CG5708	DRSC02881	inactive
CenG1A (Centaurin gamma 1A)	DRSC02538	inactive
CenG1A (Centaurin gamma 1A)	DRSC03505	inactive
CenG1A (Centaurin gamma 1A)	DRSC03506	inactive
CG17237	DRSC00491	inactive
pic (piccolo)	DRSC16639	inactive
CG11112	DRSC06038	inactive
Orco (Odorant receptor co-receptor)	DRSC12358	inactive
GV1	DRSC08228	inactive
dbe (dribble)	DRSC00811	inactive
CG6225	DRSC15996	inactive
tj (traffic jam)	DRSC02011	inactive
CG32276	DRSC08027	inactive
GstE11 (Glutathione S transferase E11)	DRSC06926	inactive
His4r (Histone H4 replacement)	DRSC16703	inactive
CG34236	DRSC05435	inactive
CG34315 + Orc3	DRSC07642	inactive
l(2)05287 (lethal (2) 05287)	DRSC02151	inactive
l(2)05287 (lethal (2) 05287)	DRSC02152	inactive
aay (astray)	DRSC11320	inactive
CG1598	DRSC06598	inactive
Tnpo (Transportin)	DRSC11309	inactive
Sesn (Sestrin)	DRSC04101	inactive
Sesn (Sestrin)	DRSC04102	inactive
Sesn (Sestrin)	DRSC04103	inactive
CG11786	DRSC14389	inactive
CG33491 (retired record) + CG33496 (retired record) + CG33487 (retired record) + 1 more	DRSC22969	inactive
Gr22b (Gustatory receptor 22b)	DRSC20911	inactive
CG14561	DRSC11722	inactive
Cln7	DRSC11005	inactive
Sap30 (SIN3-associated polypeptide 30)	DRSC19916	inactive
Polr2F (RNA polymerase II, I and III subunit F)	DRSC12366	inactive
yuri (yuri gagarin)	DRSC01453	inactive
yuri (yuri gagarin)	DRSC01454	inactive
yuri (yuri gagarin)	DRSC01943	inactive
yuri (yuri gagarin)	DRSC01972	inactive
Drsl1 (Drosomycin-like 1)	DRSC22490	inactive
CG7049	DRSC08587	inactive
CG9522	DRSC20197	inactive
mRpL28 (mitochondrial ribosomal protein L28)	DRSC02724	inactive
CG9825	DRSC04569	inactive
bel (belle)	DRSC16555	inactive
Gr9a (Gustatory receptor 9a)	DRSC22506	inactive
ND-13A (NADH dehydrogenase (ubiquinone) 13 kDa A subunit)	DRSC03110	inactive
MED28 (Mediator complex subunit 28)	DRSC15721	inactive
Cyp6a19 (Cytochrome P450 6a19)	DRSC07379	inactive
RhoGAPp190 (Rho GTPase activating protein p190)	DRSC20097	inactive
RhoGAPp190 (Rho GTPase activating protein p190)	DRSC20099	inactive
CG13081	DRSC02185	inactive
CG14326	DRSC14805	inactive
Cpr50Cb (Cuticular protein 50Cb)	DRSC06975	inactive
Nost (Nostrin)	DRSC18037	inactive
Nost (Nostrin)	DRSC18338	inactive
CG16723	DRSC15138	inactive
CG11438	DRSC11660	inactive
levy	DRSC04289	inactive
Had2 (beta Hydroxy acid dehydrogenase 2)	DRSC05971	inactive
CG14285	DRSC14766	inactive
CG15322	DRSC20680	inactive
mth (methuselah)	DRSC08725	inactive
CG5592	DRSC10524	inactive
CG18473	DRSC16381	inactive
CG13795	DRSC02299	inactive
GlnRS (Glutaminyl-tRNA synthetase)	DRSC14140	inactive
Osi24 (Osiris 24)	DRSC12275	inactive
TRAM	DRSC18178	inactive
TRAM	DRSC18651	inactive
CG3662	DRSC00626	inactive
CG33460	DRSC05570	inactive
CG30392	DRSC22341	inactive
CG17778	DRSC18504	inactive
peb (pebbled)	DRSC18817	inactive
FASN2 (Fatty acid synthase 2)	DRSC00167	inactive
FASN2 (Fatty acid synthase 2)	DRSC00610	inactive
TER94 (Transitional endoplasmic reticulum 94)	DRSC07560	inactive
CG10657	DRSC09768	inactive
CG30094	DRSC22268	inactive
skd (skuld)	DRSC11898	inactive
CG6836	DRSC10722	inactive
Prx3 (Peroxiredoxin 3)	DRSC15883	inactive
DIP-delta (Dpr-interacting protein delta)	DRSC10214	inactive
DIP-delta (Dpr-interacting protein delta)	DRSC10450	inactive
Nhe1 (Na[+]/H[+] hydrogen exchanger 1)	DRSC00762	inactive
CG15279	DRSC01935	inactive
PIP4K (Phosphatidylinositol 5-phosphate 4-kinase)	DRSC17213	inactive
CG2656	DRSC12584	inactive
ABCB7 (ATP binding cassette subfamily B member 7)	DRSC08603	inactive
CG43867	DRSC17582	inactive
CG43867	DRSC17836	inactive
CG43867	DRSC17837	inactive
CG43867	DRSC17943	inactive
CG8414	DRSC07168	inactive
Nca (Neurocalcin)	DRSC11233	inactive
fs(1)Yb (female sterile (1) Yb)	DRSC18777	inactive
SH3PX1 (SH3 and PX domain containing 1)	DRSC11139	inactive
Fntb (Farnesyl transferase beta subunit)	DRSC15244	inactive
CG6296	DRSC16013	inactive
Peritrophin-A (Peritrophin A)	DRSC20570	inactive
CG11737	DRSC14364	inactive
Sbp2 (SECIS-binding protein 2)	DRSC10766	inactive
Cyp313a4 (Cytochrome P450 313a4)	DRSC16627	inactive
CG31068	DRSC13820	inactive
CG14829	DRSC10199	inactive
CG13564	DRSC04201	inactive
Iml1 (Increased minichromosome loss 1)	DRSC08249	active
IntS10 (Integrator 10)	DRSC08173	inactive
Osi22 (Osiris 22)	DRSC16442	inactive
CG43795	DRSC04192	inactive
CG43795	DRSC04193	inactive
CG43795	DRSC04194	inactive
CG43795	DRSC04309	inactive
CG43795	DRSC04310	inactive
CG43795	DRSC22826	inactive
CG7945	DRSC10934	inactive
CG14609	DRSC12553	inactive
Phf7 (PHD finger protein 7)	DRSC20692	inactive
Cdc42 (Cell division cycle 42)	DRSC20228	inactive
CG9646	DRSC07342	inactive
Drsl3 (Drosomycin-like 3)	DRSC22630	inactive
CG5504	DRSC04701	inactive
CG6026	DRSC15950	inactive
M7BP (Myosin-7a binding protein)	DRSC05932	inactive
Antp (Antennapedia)	DRSC12490	inactive
CG17597	DRSC02630	inactive
Ir7d (Ionotropic receptor 7d)	DRSC18010	inactive
sgg (shaggy)	DRSC17228	inactive
sgg (shaggy)	DRSC17722	inactive
sgg (shaggy)	DRSC18832	inactive
CG8852	DRSC00719	inactive
CG5199	DRSC11770	inactive
phol (pleiohomeotic like)	DRSC10367	inactive
VepD (Ventrally-expressed protein D)	DRSC22318	inactive
Sos (Son of sevenless)	DRSC03439	inactive
CG7568	DRSC16259	inactive
CG15443	DRSC00455	inactive
CG15365	DRSC18038	inactive
CHKov2 (CHK domain ov2)	DRSC14262	inactive
ng4 (new glue 4)	DRSC18805	inactive
CG12093	DRSC08252	inactive
H (Hairless)	DRSC16692	inactive
CG13814 (retired record)	DRSC10069	inactive
CG9801	DRSC16568	inactive
cdm (cadmus)	DRSC16213	inactive
mRpL15 (mitochondrial ribosomal protein L15)	DRSC11771	inactive
Fadd (Fas-associated death domain)	DRSC14122	inactive
CG12691	DRSC17880	inactive
CG15251 (retired record)	DRSC17980	inactive
CG13871	DRSC06430	inactive
CG7443	DRSC16244	inactive
CG42715 (retired record)	DRSC05499	inactive
bc10	DRSC11326	inactive
fd96Cb (forkhead domain 96Cb)	DRSC16947	inactive
rdx (roadkill)	DRSC14526	inactive
rdx (roadkill)	DRSC16580	inactive
Acp53C14a (Accessory gland protein 53C14a)	DRSC07224	inactive
CG17124	DRSC02580	inactive
Argk1 (Arginine kinase 1)	DRSC08959	inactive
Argk1 (Arginine kinase 1)	DRSC09668	inactive
Argk1 (Arginine kinase 1)	DRSC10460	inactive
Argk1 (Arginine kinase 1)	DRSC21558	inactive
Argk1 (Arginine kinase 1)	DRSC22665	inactive
CG17929	DRSC15291	inactive
CG15125	DRSC06547	inactive
CG32772	DRSC18052	inactive
CG32772	DRSC18406	inactive
CG32772	DRSC22349	inactive
aus (argus)	DRSC13471	inactive
aus (argus)	DRSC13473	inactive
aus (argus)	DRSC15157	inactive
robls54B (roadblock similar 54B)	DRSC05660	inactive
Cpr49Ah (Cuticular protein 49Ah)	DRSC07204	active
TfIIS (RNA polymerase II elongation factor)	DRSC03455	inactive
Wdr33 (WD repeat domain 33)	DRSC12162	inactive
CG9945	DRSC07347	inactive
apt (apontic)	DRSC04671	inactive
CG17266	DRSC04979	inactive
CG17266	DRSC22368	inactive
pall (pallbearer)	DRSC10364	inactive
CG17751	DRSC15261	inactive
CG17751	DRSC22837	inactive
CG10265	DRSC05986	inactive
CG10265	DRSC21680	inactive
Npc2f (Niemann-Pick type C-2f)	DRSC15980	inactive
hop (hopscotch)	DRSC20340	inactive
CG1387	DRSC17904	inactive
Vsx2 (Visual system homeobox 2)	DRSC17397	inactive
Vsx2 (Visual system homeobox 2)	DRSC18087	inactive
Vsx2 (Visual system homeobox 2)	DRSC18088	inactive
Vsx2 (Visual system homeobox 2)	DRSC18089	inactive
CG3760	DRSC04415	inactive
Mst84Db (Male-specific RNA 84Db)	DRSC12542	inactive
Mst84Db (Male-specific RNA 84Db)	DRSC12598	inactive
CG1304	DRSC20494	inactive
Mtap (Methylthioadenosine phosphorylase)	DRSC06890	inactive
CG13920	DRSC08389	inactive

Called active, of those listed so far:
target gene	dsRNA	outcome
Iml1 (Increased minichromosome loss 1)	DRSC08249	active
Cpr49Ah (Cuticular protein 49Ah)	DRSC07204	active
